# Some of the results follow. Most values lie at the level of the controls, where differences are scatter.
# The chains behind the UniProt entries cited, without tags or fusion partners. Where a name states a change or a piece, a line headed by the entry shows the natural chain unless it says otherwise.
# UniProt O60763: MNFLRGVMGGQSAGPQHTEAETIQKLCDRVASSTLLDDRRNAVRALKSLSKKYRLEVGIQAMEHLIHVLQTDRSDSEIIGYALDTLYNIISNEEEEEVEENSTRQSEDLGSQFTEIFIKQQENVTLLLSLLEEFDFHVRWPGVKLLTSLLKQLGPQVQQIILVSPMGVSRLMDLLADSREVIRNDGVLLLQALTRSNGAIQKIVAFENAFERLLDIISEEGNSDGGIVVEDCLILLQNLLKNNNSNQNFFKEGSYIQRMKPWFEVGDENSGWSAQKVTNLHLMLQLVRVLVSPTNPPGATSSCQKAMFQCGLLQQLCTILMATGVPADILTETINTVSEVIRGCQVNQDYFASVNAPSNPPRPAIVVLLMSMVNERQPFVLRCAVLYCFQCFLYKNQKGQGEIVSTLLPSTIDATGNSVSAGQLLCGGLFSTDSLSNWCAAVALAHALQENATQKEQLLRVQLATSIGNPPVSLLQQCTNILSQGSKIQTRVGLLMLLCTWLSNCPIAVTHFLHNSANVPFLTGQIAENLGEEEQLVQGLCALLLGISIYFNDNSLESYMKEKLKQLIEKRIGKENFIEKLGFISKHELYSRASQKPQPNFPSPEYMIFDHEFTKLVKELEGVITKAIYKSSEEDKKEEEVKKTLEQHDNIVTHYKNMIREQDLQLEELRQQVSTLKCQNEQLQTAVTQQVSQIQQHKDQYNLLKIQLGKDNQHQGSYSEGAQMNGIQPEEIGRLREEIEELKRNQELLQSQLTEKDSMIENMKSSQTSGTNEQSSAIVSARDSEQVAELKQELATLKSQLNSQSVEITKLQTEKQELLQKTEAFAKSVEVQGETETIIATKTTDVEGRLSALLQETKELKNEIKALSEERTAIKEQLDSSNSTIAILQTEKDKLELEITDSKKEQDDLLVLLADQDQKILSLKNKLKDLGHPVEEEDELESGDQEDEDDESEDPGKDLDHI
# UniProt O43447: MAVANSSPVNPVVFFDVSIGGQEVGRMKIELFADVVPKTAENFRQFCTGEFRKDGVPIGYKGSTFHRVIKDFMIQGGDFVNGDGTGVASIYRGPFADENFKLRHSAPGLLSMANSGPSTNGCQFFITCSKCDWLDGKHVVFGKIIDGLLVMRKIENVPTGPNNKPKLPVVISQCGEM
# UniProt O60936: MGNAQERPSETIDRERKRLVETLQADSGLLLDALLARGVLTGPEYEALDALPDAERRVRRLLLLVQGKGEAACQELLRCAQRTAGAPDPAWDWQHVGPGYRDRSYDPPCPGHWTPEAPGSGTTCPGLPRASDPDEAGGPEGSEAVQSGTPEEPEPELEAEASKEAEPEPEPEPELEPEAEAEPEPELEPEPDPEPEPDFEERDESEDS
# UniProt O60256: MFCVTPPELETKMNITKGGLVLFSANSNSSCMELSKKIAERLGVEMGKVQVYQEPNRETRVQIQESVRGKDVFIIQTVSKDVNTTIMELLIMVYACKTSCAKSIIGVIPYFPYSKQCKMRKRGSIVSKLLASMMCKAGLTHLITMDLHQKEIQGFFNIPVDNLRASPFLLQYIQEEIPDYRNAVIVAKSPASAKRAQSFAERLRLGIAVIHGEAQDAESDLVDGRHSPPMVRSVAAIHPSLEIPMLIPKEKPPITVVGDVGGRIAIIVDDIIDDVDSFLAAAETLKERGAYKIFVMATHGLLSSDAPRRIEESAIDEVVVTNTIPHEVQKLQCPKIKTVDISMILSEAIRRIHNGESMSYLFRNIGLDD
# UniProt O75175, whole entry: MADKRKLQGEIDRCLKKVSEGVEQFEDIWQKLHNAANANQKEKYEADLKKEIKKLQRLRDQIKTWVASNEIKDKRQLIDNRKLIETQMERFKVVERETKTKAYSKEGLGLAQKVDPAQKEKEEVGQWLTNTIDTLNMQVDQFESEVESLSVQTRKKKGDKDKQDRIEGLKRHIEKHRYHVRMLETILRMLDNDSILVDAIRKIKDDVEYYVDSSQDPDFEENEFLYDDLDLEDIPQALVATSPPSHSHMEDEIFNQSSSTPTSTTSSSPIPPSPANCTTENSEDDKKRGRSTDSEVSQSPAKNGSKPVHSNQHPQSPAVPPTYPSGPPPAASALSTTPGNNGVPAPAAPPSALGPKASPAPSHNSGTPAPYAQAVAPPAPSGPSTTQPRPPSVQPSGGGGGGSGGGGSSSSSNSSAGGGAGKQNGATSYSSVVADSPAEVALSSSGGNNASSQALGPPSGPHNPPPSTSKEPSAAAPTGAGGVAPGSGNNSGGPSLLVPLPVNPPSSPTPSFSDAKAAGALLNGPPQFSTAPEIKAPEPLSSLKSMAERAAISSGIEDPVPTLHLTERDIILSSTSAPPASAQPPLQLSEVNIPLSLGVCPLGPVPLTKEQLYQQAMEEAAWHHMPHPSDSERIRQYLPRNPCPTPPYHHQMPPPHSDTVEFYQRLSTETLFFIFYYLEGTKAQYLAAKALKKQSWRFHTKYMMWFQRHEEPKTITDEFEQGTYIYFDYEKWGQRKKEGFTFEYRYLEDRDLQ
# UniProt O60287: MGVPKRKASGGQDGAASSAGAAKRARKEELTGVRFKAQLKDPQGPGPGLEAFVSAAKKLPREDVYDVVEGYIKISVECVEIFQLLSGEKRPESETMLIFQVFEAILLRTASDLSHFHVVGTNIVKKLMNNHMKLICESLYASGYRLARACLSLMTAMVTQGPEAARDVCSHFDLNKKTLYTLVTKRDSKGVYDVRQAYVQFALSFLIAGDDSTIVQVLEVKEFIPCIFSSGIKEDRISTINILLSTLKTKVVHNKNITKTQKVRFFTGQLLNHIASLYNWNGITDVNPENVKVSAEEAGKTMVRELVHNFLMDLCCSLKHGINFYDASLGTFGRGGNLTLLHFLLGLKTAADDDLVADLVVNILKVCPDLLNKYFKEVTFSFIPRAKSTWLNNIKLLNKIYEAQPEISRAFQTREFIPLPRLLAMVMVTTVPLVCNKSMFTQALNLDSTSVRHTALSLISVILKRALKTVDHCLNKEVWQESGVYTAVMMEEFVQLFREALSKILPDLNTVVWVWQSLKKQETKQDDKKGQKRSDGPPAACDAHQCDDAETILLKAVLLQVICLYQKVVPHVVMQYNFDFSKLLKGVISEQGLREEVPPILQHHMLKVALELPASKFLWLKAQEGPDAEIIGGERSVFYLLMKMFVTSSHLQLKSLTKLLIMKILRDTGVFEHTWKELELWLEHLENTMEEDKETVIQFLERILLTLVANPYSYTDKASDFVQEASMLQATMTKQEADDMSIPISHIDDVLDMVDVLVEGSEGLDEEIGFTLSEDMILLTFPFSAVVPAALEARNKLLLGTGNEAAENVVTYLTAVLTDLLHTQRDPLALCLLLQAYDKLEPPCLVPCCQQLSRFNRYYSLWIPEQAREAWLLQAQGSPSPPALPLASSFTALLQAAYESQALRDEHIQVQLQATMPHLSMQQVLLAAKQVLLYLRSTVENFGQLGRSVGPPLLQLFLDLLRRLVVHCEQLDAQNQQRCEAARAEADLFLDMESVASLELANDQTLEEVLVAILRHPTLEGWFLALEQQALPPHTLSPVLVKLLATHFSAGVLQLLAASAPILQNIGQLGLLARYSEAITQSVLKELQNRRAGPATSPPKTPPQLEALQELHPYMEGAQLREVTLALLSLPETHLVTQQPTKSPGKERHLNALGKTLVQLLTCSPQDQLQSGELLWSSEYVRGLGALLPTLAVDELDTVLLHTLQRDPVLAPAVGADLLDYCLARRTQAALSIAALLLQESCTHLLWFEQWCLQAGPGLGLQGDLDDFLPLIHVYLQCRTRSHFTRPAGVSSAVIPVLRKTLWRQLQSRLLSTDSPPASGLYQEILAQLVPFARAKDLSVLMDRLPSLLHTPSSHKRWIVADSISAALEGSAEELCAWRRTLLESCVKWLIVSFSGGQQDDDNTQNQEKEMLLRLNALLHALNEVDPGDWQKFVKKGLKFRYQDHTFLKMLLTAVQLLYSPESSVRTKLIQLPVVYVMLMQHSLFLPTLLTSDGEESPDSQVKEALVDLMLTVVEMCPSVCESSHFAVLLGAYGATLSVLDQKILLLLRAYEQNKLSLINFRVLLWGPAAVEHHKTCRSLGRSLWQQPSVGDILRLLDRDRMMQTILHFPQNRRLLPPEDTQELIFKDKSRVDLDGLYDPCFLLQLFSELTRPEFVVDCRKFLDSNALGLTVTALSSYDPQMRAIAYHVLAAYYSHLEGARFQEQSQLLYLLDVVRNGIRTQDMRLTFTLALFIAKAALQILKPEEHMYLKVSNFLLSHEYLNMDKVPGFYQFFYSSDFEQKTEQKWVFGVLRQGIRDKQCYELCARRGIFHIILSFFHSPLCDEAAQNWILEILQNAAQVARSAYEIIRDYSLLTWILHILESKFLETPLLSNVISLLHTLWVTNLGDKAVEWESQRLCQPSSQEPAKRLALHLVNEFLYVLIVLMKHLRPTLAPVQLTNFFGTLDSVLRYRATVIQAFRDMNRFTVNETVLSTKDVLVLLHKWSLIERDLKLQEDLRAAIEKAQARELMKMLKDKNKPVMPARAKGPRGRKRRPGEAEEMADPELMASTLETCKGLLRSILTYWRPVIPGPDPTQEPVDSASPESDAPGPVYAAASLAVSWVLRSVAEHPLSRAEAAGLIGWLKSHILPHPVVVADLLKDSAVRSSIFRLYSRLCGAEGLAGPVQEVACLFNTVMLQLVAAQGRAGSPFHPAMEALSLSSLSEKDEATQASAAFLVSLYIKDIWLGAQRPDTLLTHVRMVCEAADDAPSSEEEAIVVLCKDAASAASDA
# UniProt O75116: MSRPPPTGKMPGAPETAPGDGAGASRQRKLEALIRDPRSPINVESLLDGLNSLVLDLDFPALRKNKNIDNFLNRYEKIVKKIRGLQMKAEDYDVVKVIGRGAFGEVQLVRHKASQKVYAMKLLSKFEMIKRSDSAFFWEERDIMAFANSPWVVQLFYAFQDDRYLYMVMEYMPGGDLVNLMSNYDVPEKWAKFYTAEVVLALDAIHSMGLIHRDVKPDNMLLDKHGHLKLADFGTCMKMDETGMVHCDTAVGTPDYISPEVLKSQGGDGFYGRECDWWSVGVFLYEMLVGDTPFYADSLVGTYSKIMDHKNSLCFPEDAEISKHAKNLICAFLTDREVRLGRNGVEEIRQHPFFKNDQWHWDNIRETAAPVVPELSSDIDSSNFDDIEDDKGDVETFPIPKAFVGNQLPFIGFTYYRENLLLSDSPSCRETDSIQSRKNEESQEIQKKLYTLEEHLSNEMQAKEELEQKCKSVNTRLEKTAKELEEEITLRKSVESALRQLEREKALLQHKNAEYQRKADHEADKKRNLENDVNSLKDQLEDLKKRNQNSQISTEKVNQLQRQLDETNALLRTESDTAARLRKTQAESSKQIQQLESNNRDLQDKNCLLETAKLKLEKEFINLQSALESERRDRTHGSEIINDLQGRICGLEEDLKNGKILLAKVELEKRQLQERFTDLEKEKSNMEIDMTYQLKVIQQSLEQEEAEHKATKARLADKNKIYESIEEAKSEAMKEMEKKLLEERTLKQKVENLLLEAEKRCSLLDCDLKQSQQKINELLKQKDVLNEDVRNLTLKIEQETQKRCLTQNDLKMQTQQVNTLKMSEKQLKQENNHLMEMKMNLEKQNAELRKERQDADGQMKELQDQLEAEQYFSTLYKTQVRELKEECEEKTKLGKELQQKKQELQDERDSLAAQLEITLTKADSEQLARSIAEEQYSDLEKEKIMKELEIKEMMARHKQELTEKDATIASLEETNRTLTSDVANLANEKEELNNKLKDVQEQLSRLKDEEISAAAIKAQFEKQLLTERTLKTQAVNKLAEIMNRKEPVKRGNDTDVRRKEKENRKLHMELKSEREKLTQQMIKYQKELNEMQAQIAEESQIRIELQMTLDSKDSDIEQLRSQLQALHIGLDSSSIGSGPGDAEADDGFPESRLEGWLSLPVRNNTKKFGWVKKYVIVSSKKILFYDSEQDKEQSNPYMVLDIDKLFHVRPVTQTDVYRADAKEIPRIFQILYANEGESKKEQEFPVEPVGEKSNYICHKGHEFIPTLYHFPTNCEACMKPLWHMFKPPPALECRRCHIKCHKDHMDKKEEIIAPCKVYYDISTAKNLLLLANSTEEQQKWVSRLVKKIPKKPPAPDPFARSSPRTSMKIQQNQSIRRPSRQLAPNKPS
# UniProt O75381, whole entry: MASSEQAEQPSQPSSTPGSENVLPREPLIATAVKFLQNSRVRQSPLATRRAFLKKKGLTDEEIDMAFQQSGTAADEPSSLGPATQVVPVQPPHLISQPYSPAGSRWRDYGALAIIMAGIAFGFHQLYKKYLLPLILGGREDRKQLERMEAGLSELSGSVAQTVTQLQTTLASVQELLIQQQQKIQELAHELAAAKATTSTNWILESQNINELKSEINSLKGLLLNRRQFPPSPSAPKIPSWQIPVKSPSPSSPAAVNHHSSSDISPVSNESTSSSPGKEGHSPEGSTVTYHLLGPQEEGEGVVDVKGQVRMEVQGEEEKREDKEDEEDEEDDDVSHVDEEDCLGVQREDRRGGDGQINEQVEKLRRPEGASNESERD
# Compound: Cc1nc(Nc2ncc(C(=O)Nc3c(C)cccc3Cl)s2)cc(N2CCN(CCO)CC2)n1 [dasatinib]
# Assay: log2 fold change of tryptic peptide abundance, ligand vs vehicle (limited proteolysis) (log2 ratio); higher = more trypsin-susceptible (destabilized)
# Details: ligand concentration: 5 uM; sample: K562 cleared lysate
row,Target,log2 fold change
1,"USO1 (peptide sequence: IVAFENAFER, peptide start residue: 203) (UniProt O60763)",-0.205
2,"PPIH (peptide sequence: GPFADENFK, peptide start residue: 93) (UniProt O43447)",0.564
3,"RNGTT (peptide sequence: EVSHEMDGLIFQPTGK, peptide start residue: 432) (UniProt O60942)",0.112
4,"NOL3 (peptide sequence: GEAACQELLR, peptide start residue: 69) (UniProt O60936)",0.0762
5,"PRPSAP2 (peptide sequence: LLASMMCK, peptide start residue: 129) (UniProt O60256)",0.451
6,"CNOT3 (peptide sequence: KKEGFTFEYR, peptide start residue: 736) (UniProt O75175)",-0.444
7,"URB1 (peptide sequence: MMQTILHFPQNR, peptide start residue: 1602) (UniProt O60287)",0.341
8,"ROCK2 (peptide sequence: IELQMTLDSK, peptide start residue: 1103) (UniProt O75116)",0.151
9,"PEX14 (peptide sequence: IPSWQIPVK, peptide start residue: 238) (UniProt O75381)",0.513

# Exported tab-delimited: entries from further up.
row	Target	log2 fold change
2	PPIH (peptide sequence: GPFADENFK, peptide start residue: 93) (UniProt O43447)	0.564
3	RNGTT (peptide sequence: EVSHEMDGLIFQPTGK, peptide start residue: 432) (UniProt O60942)	0.112
